# Reference: the supplement of paper PMC12067093, “Discovery and optimisation of a covalent ligand for TRIM25 and its application to targeted protein ubiquitination” (Chemical Science, 2025)
# Chains of the proteins cited; added tags and fusions are not shown. Lines headed by an entry give the natural chain unless they say otherwise; changes in a name come on top.
# UniProt Q9BT17: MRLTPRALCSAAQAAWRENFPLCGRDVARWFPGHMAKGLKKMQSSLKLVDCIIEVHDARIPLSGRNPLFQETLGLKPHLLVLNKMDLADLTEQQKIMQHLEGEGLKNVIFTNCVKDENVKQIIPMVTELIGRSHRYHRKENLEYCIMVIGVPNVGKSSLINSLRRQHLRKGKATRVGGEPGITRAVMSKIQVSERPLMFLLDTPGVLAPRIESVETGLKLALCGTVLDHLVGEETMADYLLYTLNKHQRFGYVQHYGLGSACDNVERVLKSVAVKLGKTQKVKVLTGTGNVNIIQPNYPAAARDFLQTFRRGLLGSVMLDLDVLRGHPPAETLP
# UniProt Q9BQG0: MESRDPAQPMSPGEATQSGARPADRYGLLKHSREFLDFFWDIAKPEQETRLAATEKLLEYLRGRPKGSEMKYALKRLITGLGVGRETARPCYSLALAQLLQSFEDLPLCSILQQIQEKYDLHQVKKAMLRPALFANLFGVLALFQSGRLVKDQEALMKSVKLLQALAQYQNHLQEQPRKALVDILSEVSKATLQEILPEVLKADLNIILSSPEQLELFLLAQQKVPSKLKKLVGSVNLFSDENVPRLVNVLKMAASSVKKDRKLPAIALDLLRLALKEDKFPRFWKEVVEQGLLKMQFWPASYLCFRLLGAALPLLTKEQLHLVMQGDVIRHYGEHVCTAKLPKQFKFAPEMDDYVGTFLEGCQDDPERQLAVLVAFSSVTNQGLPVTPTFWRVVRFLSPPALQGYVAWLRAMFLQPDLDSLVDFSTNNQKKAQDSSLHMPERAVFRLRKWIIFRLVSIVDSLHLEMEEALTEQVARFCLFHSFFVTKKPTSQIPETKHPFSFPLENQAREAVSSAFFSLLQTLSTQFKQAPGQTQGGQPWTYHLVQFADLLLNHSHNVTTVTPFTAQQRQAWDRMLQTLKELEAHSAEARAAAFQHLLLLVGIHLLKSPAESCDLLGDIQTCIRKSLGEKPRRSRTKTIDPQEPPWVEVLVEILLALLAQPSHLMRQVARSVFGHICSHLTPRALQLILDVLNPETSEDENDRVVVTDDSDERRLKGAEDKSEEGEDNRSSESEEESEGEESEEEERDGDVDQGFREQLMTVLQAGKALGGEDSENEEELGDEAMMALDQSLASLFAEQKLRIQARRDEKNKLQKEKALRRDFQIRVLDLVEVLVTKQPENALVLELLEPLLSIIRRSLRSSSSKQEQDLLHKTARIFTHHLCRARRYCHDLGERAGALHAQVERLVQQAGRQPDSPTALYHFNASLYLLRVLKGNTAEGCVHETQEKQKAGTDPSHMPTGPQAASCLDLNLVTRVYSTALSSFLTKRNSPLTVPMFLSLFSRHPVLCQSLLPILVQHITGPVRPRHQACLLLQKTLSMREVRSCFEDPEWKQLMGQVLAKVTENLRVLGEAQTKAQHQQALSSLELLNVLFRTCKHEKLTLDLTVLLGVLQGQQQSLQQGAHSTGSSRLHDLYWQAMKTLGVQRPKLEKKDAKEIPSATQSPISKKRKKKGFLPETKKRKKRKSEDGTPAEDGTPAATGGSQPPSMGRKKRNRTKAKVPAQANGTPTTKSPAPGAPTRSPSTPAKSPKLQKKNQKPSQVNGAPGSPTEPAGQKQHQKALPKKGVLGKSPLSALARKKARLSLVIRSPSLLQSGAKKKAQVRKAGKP
# UniProt O75592: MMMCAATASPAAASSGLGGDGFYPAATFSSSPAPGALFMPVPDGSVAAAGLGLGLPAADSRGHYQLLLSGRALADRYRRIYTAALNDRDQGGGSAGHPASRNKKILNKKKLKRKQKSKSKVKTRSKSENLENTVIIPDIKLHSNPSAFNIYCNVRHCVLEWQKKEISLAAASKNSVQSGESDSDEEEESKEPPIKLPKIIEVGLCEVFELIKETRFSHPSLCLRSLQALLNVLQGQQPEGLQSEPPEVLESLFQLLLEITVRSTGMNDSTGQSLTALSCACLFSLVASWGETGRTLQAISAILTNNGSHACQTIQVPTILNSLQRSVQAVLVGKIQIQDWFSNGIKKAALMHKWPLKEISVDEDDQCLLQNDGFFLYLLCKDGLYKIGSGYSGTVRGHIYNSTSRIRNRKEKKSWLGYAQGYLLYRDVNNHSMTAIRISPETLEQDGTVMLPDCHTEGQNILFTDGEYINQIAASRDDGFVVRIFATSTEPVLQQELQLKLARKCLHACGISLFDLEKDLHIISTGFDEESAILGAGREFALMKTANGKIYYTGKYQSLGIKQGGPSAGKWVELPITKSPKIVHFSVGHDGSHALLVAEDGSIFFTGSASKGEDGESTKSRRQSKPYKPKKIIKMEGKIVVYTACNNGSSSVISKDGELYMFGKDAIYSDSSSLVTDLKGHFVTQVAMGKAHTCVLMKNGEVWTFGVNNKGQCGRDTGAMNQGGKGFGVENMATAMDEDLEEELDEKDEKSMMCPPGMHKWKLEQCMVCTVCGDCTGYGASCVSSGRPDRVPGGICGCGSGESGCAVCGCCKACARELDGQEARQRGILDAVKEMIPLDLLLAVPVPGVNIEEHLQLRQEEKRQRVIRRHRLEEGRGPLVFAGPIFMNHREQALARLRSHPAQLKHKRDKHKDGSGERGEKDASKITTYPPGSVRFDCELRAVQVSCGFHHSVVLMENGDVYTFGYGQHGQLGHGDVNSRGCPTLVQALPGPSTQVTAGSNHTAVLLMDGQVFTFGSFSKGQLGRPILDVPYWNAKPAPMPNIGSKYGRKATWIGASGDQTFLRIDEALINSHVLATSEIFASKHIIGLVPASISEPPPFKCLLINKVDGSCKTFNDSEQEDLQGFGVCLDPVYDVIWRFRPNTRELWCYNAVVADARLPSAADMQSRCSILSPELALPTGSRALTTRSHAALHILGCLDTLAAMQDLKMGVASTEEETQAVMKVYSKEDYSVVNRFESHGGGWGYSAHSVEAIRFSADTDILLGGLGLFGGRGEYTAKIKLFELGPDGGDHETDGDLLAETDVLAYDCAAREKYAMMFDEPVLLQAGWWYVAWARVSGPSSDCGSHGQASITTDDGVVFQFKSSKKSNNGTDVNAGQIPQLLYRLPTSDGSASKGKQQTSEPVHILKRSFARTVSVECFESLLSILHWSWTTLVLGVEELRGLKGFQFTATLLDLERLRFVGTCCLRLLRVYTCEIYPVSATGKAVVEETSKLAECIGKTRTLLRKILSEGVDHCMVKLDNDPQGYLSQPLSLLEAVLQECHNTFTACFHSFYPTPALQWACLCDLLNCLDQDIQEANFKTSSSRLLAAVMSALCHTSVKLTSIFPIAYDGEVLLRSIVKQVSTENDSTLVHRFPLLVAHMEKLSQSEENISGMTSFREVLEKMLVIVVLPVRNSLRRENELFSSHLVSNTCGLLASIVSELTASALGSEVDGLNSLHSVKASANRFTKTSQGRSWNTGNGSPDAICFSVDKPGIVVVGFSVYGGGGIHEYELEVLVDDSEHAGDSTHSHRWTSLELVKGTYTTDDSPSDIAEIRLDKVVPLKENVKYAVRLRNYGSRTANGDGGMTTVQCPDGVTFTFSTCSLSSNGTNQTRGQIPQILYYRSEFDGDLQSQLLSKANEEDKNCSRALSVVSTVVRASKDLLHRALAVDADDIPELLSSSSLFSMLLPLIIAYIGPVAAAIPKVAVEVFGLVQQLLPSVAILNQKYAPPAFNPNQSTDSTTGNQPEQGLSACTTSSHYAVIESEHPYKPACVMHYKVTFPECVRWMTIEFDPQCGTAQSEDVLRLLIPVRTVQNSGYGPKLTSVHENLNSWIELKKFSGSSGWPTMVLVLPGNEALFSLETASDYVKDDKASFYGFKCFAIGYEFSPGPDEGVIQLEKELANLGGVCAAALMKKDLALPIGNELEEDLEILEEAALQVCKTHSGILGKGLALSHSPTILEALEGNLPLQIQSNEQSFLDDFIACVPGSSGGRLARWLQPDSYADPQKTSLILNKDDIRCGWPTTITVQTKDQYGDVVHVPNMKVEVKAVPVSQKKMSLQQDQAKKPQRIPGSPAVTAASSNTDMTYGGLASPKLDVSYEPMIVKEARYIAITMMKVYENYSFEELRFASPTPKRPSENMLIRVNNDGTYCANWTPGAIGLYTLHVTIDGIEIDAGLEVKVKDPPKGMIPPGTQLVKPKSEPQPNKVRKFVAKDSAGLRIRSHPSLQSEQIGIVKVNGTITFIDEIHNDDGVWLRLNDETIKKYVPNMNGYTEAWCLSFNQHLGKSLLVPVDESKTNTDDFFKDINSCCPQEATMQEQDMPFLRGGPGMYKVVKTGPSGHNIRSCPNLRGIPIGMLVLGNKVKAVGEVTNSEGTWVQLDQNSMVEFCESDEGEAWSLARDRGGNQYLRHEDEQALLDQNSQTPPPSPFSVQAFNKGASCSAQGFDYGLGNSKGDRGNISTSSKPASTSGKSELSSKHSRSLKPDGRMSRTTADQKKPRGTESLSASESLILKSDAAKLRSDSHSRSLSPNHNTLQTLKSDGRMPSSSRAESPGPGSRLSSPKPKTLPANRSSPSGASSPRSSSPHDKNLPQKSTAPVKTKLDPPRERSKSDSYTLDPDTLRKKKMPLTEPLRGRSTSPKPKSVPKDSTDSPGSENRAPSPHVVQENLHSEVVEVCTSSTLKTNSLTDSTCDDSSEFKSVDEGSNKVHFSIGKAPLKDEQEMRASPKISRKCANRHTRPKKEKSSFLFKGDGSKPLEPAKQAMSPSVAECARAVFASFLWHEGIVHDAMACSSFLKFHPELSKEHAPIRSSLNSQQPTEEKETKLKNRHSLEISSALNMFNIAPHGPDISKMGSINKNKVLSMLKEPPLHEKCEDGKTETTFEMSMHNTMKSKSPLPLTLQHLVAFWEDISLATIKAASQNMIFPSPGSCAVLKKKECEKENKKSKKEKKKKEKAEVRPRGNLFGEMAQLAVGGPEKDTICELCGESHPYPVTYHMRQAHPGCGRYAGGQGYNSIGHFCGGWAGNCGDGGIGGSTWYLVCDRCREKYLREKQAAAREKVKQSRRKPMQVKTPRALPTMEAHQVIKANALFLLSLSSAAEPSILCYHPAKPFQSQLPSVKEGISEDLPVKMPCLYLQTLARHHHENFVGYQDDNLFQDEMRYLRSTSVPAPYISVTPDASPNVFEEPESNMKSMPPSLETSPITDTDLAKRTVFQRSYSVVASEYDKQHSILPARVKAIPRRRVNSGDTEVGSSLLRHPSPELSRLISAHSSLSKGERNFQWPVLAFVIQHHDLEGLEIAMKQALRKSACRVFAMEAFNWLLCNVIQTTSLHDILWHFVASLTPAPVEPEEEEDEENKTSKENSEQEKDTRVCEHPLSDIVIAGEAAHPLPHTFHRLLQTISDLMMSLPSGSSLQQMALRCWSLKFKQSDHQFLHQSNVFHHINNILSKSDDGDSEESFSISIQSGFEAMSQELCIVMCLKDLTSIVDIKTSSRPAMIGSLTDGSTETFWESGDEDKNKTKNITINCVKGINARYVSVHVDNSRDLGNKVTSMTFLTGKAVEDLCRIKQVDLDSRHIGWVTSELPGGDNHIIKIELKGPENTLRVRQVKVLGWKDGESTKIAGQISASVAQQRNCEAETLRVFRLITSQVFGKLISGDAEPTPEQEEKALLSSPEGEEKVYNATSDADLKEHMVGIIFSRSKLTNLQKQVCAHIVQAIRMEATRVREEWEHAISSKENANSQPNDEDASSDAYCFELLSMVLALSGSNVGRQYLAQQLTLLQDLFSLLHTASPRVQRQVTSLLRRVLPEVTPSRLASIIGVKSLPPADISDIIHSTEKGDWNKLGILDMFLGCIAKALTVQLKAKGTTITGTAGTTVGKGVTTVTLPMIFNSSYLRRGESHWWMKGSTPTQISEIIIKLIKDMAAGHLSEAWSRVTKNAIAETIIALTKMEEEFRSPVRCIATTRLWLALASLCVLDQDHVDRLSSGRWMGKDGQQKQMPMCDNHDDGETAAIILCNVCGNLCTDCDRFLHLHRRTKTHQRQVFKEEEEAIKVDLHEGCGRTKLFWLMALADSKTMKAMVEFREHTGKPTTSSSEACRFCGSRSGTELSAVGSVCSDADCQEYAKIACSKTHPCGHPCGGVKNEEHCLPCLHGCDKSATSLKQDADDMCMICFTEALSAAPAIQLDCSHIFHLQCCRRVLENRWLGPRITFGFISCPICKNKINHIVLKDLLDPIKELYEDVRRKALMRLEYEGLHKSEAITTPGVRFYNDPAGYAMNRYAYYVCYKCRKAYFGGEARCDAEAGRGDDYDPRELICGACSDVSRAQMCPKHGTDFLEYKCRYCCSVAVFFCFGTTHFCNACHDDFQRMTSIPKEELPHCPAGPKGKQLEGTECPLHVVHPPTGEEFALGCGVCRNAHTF
# This is one part of the list.
# Compound: CC1Cc2ccccc2N1C(=O)C1CCCN(C1)C(=O)CCl (mixture of isomers) [TRIM25 ligand 11 (diastereomer mixture)]
# Assay: probe-labelled cysteine peptide fold change vs DMSO (competition) (log2 fold change); higher = less target engagement (more negative = stronger competition)
# Details: 50 µM; THP-1; incubation time: 4 h
# 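Further: competitive chemoproteomic profiling in live THP-1 cells with an iodoacetamide desthiobiotin (IA-DTB) probe, comparing probe-labelled peptide intensities in compound-treated cells against DMSO-treated controls.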
row,Target,probe-labelled cysteine peptide fold change
1,MTG1_Q9BT17_113_NVIFTNCVK (UniProt Q9BT17),0.163
2,MTA1_Q13330_281_AISALVPQGGPVLCRDEMEEWSASEANLFEEALEK (UniProt Q13330),-0.516
3,MTHFSD_Q2M296_215_VIATGCK (UniProt Q2M296),0.0734
4,MYBBP1A_Q9BQG0_968_AGTDPSHMPTGPQAASCLDLNLVTR (UniProt Q9BQG0),-0.273
5,MYCBP2_O75592_4578_ELICGACSDVSR (UniProt O75592),-0.109
6,MTREX_P42285_983_LEIDEETYLSSFKPHLMDVVYTWATGATFAHICK (UniProt P42285),-0.0469
7,MTHFD1_P11586_326_SCKPKPIGK (UniProt P11586),-0.425
8,MTMR10_Q9NXD2_707_SGPLEACYGELGQSR (UniProt Q9NXD2),0.141
9,MUT_P22033_471_IEECAAR (UniProt P22033),-0.104
10,MYCBP2_O75592_1198_SHAALHILGCLDTLAAMQDLK (UniProt O75592),-0.0224
11,MYBBP1A_Q9BQG0_678_SVFGHICSHLTPR (UniProt Q9BQG0),-0.106

# Given with tabs: entries from further up.
row	Target	probe-labelled cysteine peptide fold change
2	MTA1_Q13330_281_AISALVPQGGPVLCRDEMEEWSASEANLFEEALEK (UniProt Q13330)	-0.516
6	MTREX_P42285_983_LEIDEETYLSSFKPHLMDVVYTWATGATFAHICK (UniProt P42285)	-0.0469
